From PubChem BioAssay AID493014 (National Center for Advancing Translational Sciences (NCATS), 2011)
The other results are listed elsewhere or left out. Shown are side measurements of this screen, not its main read-out; they come without a call. The list favours compounds with an active or inconclusive main result. Potencies come from curve fits of mixed quality, noted in brackets.

Assay: qHTS Assay to Find Inhibitors of Chronic Active B-Cell Receptor Signaling
Conditions: ABC-DLBCL IkBa-CBG/CBR reporter, luminescence ratio (green luciferase fused to IkBa over red control in TMD8 lymphoma cells), 4 h
In short: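 Cell line TMD8 (human ABC DLBCL), stably expressing tet-inducible CBG68-IkBa fusion and CBR; IMDM/0.5% FBS; cpd up to 46 uM; dox induction, 4 h, 37C/5% CO2; dual luminescence; green/red ratio; MG132 control.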

[1] = measured here: CBR red luminescence, cell number
[2] = measured here: IkBa-CBG green luminescence

| SMILES | AC50 [1] | AC50 [2] |
| --- | --- | --- |
| N#CC(c1nc2ccccc2nc1N1CCCC1)S(=O)(=O)c1ccccc1 (stereo not drawn) | 22.4 µM [falling, single point] |  |
| CCOC(=O)Cc1csc(NC(=O)COc2c(C)cccc2C)n1 | 3.98 µM [rising, partial curve, poor fit] |  |
| CC(C)CC(=O)Nc1ccc(C(=O)CN2CCN(c3ccc(O)cc3)CC2)cc1 | 35.5 µM [falling, partial curve, poor fit] |  |
| CCOc1ccc(C(=O)CSc2nnc(N)s2)cc1 | 35.5 µM [rising, single point] |  |
| N=C1S/C(=C\c2cccc3ccccc23)C(=O)N1c1ccc(F)cc1 | 1.3 µM [falling, full curve] |  |
| Cc1ccc(C(=O)N2CCCC(C(F)(F)F)C2)cc1S(=O)(=O)N1CCOCC1 (stereo not drawn) | 0.146 µM [rising, full curve, poor fit] |  |
| O=C(CNC(=O)c1ccccc1Cl)N/N=C/C=C/c1ccccc1 | 29.1 µM [rising, single point] |  |
| COc1ccc(-n2c(C)cc(/C=N/Nc3nc(N4CCOCC4)nc(N4CCOCC4)n3)c2C)cc1 | 0.092 µM [rising, partial curve, poor fit] |  |
| CCCNC(=O)c1cccc(COCC(F)(F)C(F)F)c1 | 5.8 µM [rising, partial curve, poor fit] |  |
| Cc1ccc(C(=O)CC2(O)C(=O)N(CCc3ccccc3)c3ccc(Br)cc32)o1 (stereo not drawn) | 11.6 µM [falling, single point] |  |
| CCC(=O)NC1=C(Cl)C(=O)C(NC(=O)CC)=C(Cl)C1=O | 12.6 µM [falling, partial curve, poor fit] | 35.5 µM [rising, partial curve, poor fit] |
| N#Cc1c(N)oc(-c2ccccc2)c1-c1ccccc1 | 11.2 µM [falling, partial curve, poor fit] |  |
| COc1ccc(NC(=O)c2cccc(N3C(=O)C4CC=C(C)CC4C3=O)c2)c(OC)c1 (stereo not drawn) | 12.6 µM [falling, single point] |  |
| CCCOc1ccccc1OCC(=O)Nc1ccc(S(=O)(=O)N2CCCCC2)cc1 | 29.1 µM [falling, single point] |  |
| COc1cc(NC(=O)c2ccco2)c(C(=O)OCC(=O)Nc2ncc(Cl)cc2Cl)cc1OC | 0.116 µM [falling, full curve, poor fit] |  |
| Cc1ccccc1NC(=O)C1c2cccc[n+]2CC(=O)N1c1c(C)cccc1C (stereo not drawn) | 0.112 µM [falling, full curve, poor fit] |  |
| CC(=O)c1cnc(N2CCCCC2)nc1C | 0.731 µM [rising, full curve, poor fit] |  |
| Cc1ccc2nc(NC(=O)c3ccccn3)sc2c1 | 7.08 µM [falling, partial curve] | 10 µM [falling, partial curve] |
| COc1ccc(CCNc2oc(-c3ccc(OC)c(OC)c3)nc2C#N)cc1 | 3.16 µM [rising, single point] |  |
| CCc1ccc2[nH]c(=O)c(CN(CCCN3CCOCC3)C(=O)Nc3ccc(F)cc3)cc2c1 | 16.4 µM [falling, partial curve, poor fit] | 25.9 µM [rising, partial curve, poor fit] |
| O=C(Nc1cc(Cl)cc(Cl)c1)c1ccc(F)c(S(=O)(=O)N2CCCCCC2)c1 |  | 1 µM [rising, full curve, poor fit] |

| SMILES | AC50 [1] | AC50 [2] |
| --- | --- | --- |
| CC(=O)Nc1ccc(NC(=O)Nc2cccc3ccccc23)cc1 | 12.6 µM [falling, partial curve, poor fit] |  |
| CCOC(=O)c1c(C)[nH]c(NC(=O)N2CCOCC2)c1C | 5.01 µM [rising, full curve, poor fit] |  |
| CC(=O)Nc1ccc2c(c1)CCC2=O | 29.1 µM [rising, single point] |  |
| CCOC(=O)c1c(NC(=O)CSc2nnnn2-c2ccccc2)sc2c1CC(C)(C)NC2(C)C | 11.2 µM [falling, single point] |  |
| COc1ccccc1/C=C/C=N/NC(=O)c1cnccn1 | 15.8 µM [falling, partial curve] |  |
| O=C(CN1C(=O)NC2(CCCC2)C1=O)OCCOc1ccc(Cl)cc1Cl | 29.1 µM [rising, partial curve, poor fit] |  |
| Cc1nc2c(ccc3nc(NC(=O)Cc4ccccc4)sc32)s1 | 18.4 µM [falling, partial curve] |  |
| COc1cccc(C(=O)N2c3ccccc3Sc3ccccc32)c1 | 18.4 µM [falling, single point] |  |
| CCCCN(C)C(=S)Nc1ccsc1C(=O)OC | 2.82 µM [rising, full curve, poor fit] |  |
| Cc1cccc(OCC(=O)NNC(=O)c2ccc([N+](=O)[O-])cc2)c1 | 0.1 µM [falling, full curve, poor fit] |  |
| CCNc1nc(N)nc(Oc2ccc(OCCOc3ccccc3)nn2)n1 | 29.1 µM [falling, single point] |  |
| C=CCNC(=O)/C(C#N)=C/c1c(N2CCCCCC2)nc2ccccn2c1=O | 35.5 µM [falling, single point] |  |
| C[C@]12c3[nH]c4ccc(Cl)cc4c3CCN1C(=O)[C@@H](CC(=O)NCCc1ccccn1)C[C@@H]2C(=O)N1CCOCC1 | 7.31 µM [rising, partial curve, poor fit] | 9.2 µM [falling, partial curve, poor fit] |
| COC(=O)c1ccccc1NC(=O)Nc1cc(C)cc(C)n1 | 6.51 µM [rising, single point] |  |
| S=C(Nc1ccc2c(c1)OCO2)N1CCN(Cc2ccco2)CC1 | 0.794 µM [rising, full curve, poor fit] |  |
| Cc1ccc(-c2nc(-c3ccncc3)no2)cc1C | 0.631 µM [rising, full curve, poor fit] |  |
| CN(C)CCCn1c(NCc2ccc3c(c2)OCO3)nc2ccccc21 | 9.2 µM [falling, partial curve, poor fit] |  |
| Clc1ccc(Cc2nc(-c3cccnc3)no2)cc1 | 5.01 µM [rising, partial curve, poor fit] |  |
| O=C(CCCOc1ccc(Cl)cc1Cl)N/N=C/c1ccc(Cl)cc1 | 0.651 µM [rising, full curve] |  |
| CC1=CC(C)(C)Nc2ccc(OC(=O)C(Cc3ccccc3)N3C(=O)c4ccccc4C3=O)cc21 (stereo not drawn) | 8.91 µM [falling, partial curve] |  |
| CC(=O)Nc1ccccc1O | 31.6 µM [rising, single point] |  |

Two entries picked at random from those above, as already listed:

| SMILES | AC50 [1] | AC50 [2] |
| --- | --- | --- |
| C[C@]12c3[nH]c4ccc(Cl)cc4c3CCN1C(=O)[C@@H](CC(=O)NCCc1ccccn1)C[C@@H]2C(=O)N1CCOCC1 | 7.31 µM [rising, partial curve, poor fit] | 9.2 µM [falling, partial curve, poor fit] |
| CC(=O)Nc1ccc2c(c1)CCC2=O | 29.1 µM [rising, single point] |  |

Further entries:

| SMILES | AC50 [1] | AC50 [2] |
| --- | --- | --- |
| CS(=O)(=O)N(CC(=O)O)c1cccc(Cl)c1 | 1.03 µM [rising, partial curve, poor fit] |  |
| Cc1ccc(OCCC(=O)OCC(=O)NCc2ccccc2)cc1 | 14.6 µM [falling, partial curve, poor fit] |  |
| CCc1ccc(CN(C(=O)c2cc3ccccc3oc2=O)C2CCS(=O)(=O)C2)cc1 (stereo not drawn) | 12.6 µM [falling, single point] |  |
| COC(=O)c1ccc(C)c(NC(=O)CCSc2ccc(Cl)cc2)c1 | 35.5 µM [rising, single point] |  |
| CC(C)(C)NC(=O)C(c1ccncc1)N(Cc1ccco1)C(=O)c1ccc(-c2ccccc2)[nH]1 (stereo not drawn) | 14.1 µM [falling, single point] |  |
| CCCCCC1C(=O)C[C@@H]2CCN3C(=O)CCC[C@H]1[C@H]23 (stereo partly drawn) | 14.6 µM [rising, partial curve, poor fit] |  |
| CCNC(=S)N/N=C(\C)c1ccc(Cl)s1 | 7.31 µM [rising, partial curve] | 10.3 µM [falling, partial curve] |
| Cc1cccc2cc(/C=C/C(=O)c3ccco3)c(Cl)nc12 | 14.1 µM [falling, partial curve, poor fit] |  |
| O=C(NCCCCNC(=O)c1cccnc1)c1cccnc1 | 0.13 µM [rising, full curve, poor fit] |  |
| COc1ccccc1C(=O)Oc1cc(N)n(S(=O)(=O)c2ccccc2)n1 | 8.91 µM [falling, partial curve, poor fit] | 11.2 µM [falling, partial curve, poor fit] |
| Cc1oc(-c2ccccc2)cc1C(=O)Nc1cccc(C(=O)O)c1 | 0.0651 µM [rising, full curve, poor fit] | 0.651 µM [rising, full curve, poor fit] |
| Cc1cc2ccccc2n2c(SCC(=O)NCc3cccs3)nnc12 | 18.4 µM [rising, partial curve, poor fit] |  |
| Fc1ccccc1NC(=S)NCCc1cccc(Cl)c1 | 6.31 µM [rising, single point] |  |
| Cn1c(=O)c2c(nc(CN3CCN(C(c4ccccc4)c4ccccc4)CC3)n2CCCO)n(C)c1=O | 22.4 µM [falling, partial curve, poor fit] |  |
| O=C(CN1CCN(Cc2ccc(Cl)cc2)C1=O)NCc1ccc(F)cc1 | 25.1 µM [falling, partial curve, poor fit] |  |
| COc1cc(C(=O)OC(C)CN2CCCCC2)cc(OC)c1OC (stereo not drawn) | 10 µM [rising, partial curve] |  |
| COc1ccc(OC)c(NC(=O)CCCNC(=O)c2ccc(Cl)cc2)c1 | 2.51 µM [rising, single point] |  |
| Cc1ccc(C)c(SCC(=O)N(C)CC(=O)Nc2ccc(N3CCOCC3)cc2)c1 | 0.58 µM [rising, partial curve, poor fit] |  |
| CC(C)[C@H](NC(=O)c1ccccc1)C(=O)OCC(=O)N1CCCc2ccccc21 | 7.31 µM [rising, partial curve, poor fit] |  |
